Some compounds share one range, which may span the group rather than tell each member.
Tests used:
[1] = system: HCT116 (human colon cancer); assay: MTT cytotoxicity assay; assay type: cell-based; details: HaCaT versus HCT116
Experimental: (§1) The human cell lines SW480 (primary colon cancer), SW620 (lymph node metastatic colon cancer from the same patient as primary cancer cells), HCT116 (colon carcinoma), HepG2 (liver cancer), and HaCaT (immortalized keratinocytes) were obtained from the American Type Culture Collection (ATCC, Rockville, MD, USA). The SW480, SW620 and HCT116 cells were grown in MEM (ThermoSci, Waltham, MA, USA), HepG2 and HaCaT in DMEM High Glucose (Biowest SAS, Nuaillé, France) supplemented with 10% foetal bovine serum (FBS), HEPES (20 mM), and antibiotics (100 U mL^−1 of Penicillin and 100 μg mL^−1 of Streptomycin). The cells were incubated in a humidified incubator at 37 °C/5% CO2, until 80–90% confluence was reached.
(§2) The cell viability was assessed by using of MTT salt [3-(4,5-dimethylthiazol-2-yl)-2,5-diphenyltetrazolium bromide] converted by mitochondrial dehydrogenase, occurring in living cells. The cells were seeded in 96-well plates at a density of 1 × 10^4 cells per well and allowed to adhere for 24 h at 37 °C in a CO2 humidified incubator. […]. The untreated cells were used as the control.
(§3) After 72 h incubation, the medium was replaced with 200 µL per well of free-serum medium containing 0.5 mg mL^−1 MTT and incubated for 4 h at 37 °C in a CO2 humidified incubator. Subsequently, the medium was removed and dimethyl sulfoxide (DMSO) with isopropanol (1:1) was added to dissolve the formazan crystals. The optical density was measured using UVM 340 reader (ASYS Hitech GmbH, Eugendorf, Austria) at a wavelength of 570 nm. The experiments were repeated three times. The cell viability was calculated as the percent of MTT reduced in treated cells versus control cells (untreated cells). The number of viable cells cultured without tested compounds was assumed as 100%. A decreased relative MTT level indicates decreased cell viability. The IC50 values were estimated using CompuSyn version 1.0.

[2] = system: HepG2 (human liver cancer); assay: MTT cytotoxicity assay; assay type: cell-based; details: HaCaT versus HepG2
Experimental: as §1, §2, §3

[3] = system: SW480 (human primary colon cancer); assay: MTT cytotoxicity assay; assay type: cell-based; details: HaCaT versus SW480
Experimental: as §1, §2, §3

[4] = system: SW620 (human metastatic colon cancer); assay: MTT cytotoxicity assay; assay type: cell-based; details: HaCaT versus SW620
Experimental: as §1
The cell viability was assessed by using of MTT salt [3-(4,5-dimethylthiazol-2-yl)-2,5-diphenyltetrazolium bromide] converted by mitochondrial dehydrogenase, occurring in living cells. […] The untreated cells were used as the control.
as §3, with “Subsequently,” for “After 72 h incubation, the medium was replaced with 200 µL per well of free-serum medium containing 0.5 mg mL^−1 MTT and incubated for 4 h at 37 °C in a CO2 humidified incubator. Subsequently,”

[5] = system: cancer cells (HepG2, HCT-116, SW480, SW620) versus HaCaT; assay: MTT assay, selectivity over the cancer cell panel; assay type: cell-based, human; details: range over HepG2, HCT116, SW480, SW620

Compound | SI HCT116 (IC50 for normal cell line/IC50 cancer cell line) [1] | SI HepG2 (IC50 for normal cell line/IC50 cancer cell line) [2] | SI SW480 (IC50 for normal cell line/IC50 cancer cell line) [3] | SI SW620 (IC50 for normal cell line/IC50 cancer cell line) [4] | SI range over cancer cell lines [5]
1-cyclopropyl-6-fluoro-7-{4-[2-(2-isopropyl-5-methylphenoxy)acetyl]piperazin-1-yl}-4-oxo-1,4-dihydroquinoline-3-carboxylic acid [Compound 10] | 0.4 | 1.4 | 0.6 | 0.6 | 
CC(C)[C@@H]1CC[C@@H](C)C[C@H]1OCC(=O)N1CCN(c2cc3c(cc2F)c(=O)c(C(=O)O)cn3C2CC2)CC1 [Compound 1, 1-cyclopropyl-6-fluoro-7-{4-[2-((1R,2S,5R)-2-isopropyl-5-methylcyclohexyloxy)acetyl]piperazin-1-yl}-4-oxo-1,4-dihydroquinoline-3-carboxylic acid] | 0.6 | 0.9 | 0.5 | 0.7 | 
CC(C)[C@@H]1CC[C@@H](C)C[C@H]1OC(=O)CN1CCN(c2cc3c(cc2F)c(=O)c(C(=O)O)cn3C2CC2)CC1 [Compound 2, 1-cyclopropyl-6-fluoro-7-{4-[2-((1R,2S,5R)-2-isopropyl-5-methylcyclohexyloxy)-2-oxoethyl]piperazin-1-yl}-4-oxo-1,4-dihydroquinoline-3-carboxylic acid] | 0.8 | 1.5 | 0.7 | 0.9 | 
CC(C)[C@@H]1CC[C@@H](C)C[C@H]1OC(=O)CCN1CCN(c2cc3c(cc2F)c(=O)c(C(=O)O)cn3C2CC2)CC1 [Compound 3, 1-cyclopropyl-6-fluoro-7-{4-[3-((1R,2S,5R)-2-isopropyl-5-methylcyclohexyloxy)-3-oxopropyl]piperazin-1-yl}-4-oxo-1,4-dihydroquinoline-3-carboxylic acid] | 1.7 | 1.2 | 1.5 | 1.2 | 1.9–3.4
CC(C)[C@@H]1CC[C@@H](C)C[C@H]1OC(=O)CCCN1CCN(c2cc3c(cc2F)c(=O)c(C(=O)O)cn3C2CC2)CC1 [Compound 4, 1-cyclopropyl-6-fluoro-7-{4-[4-((1R,2S,5R)-2-isopropyl-5-methylcyclohexyloxy)-4-oxobutyl]piperazin-1-yl}-4-oxo-1,4-dihydroquinoline-3-carboxylic acid] | 1.3 | 0.9 | 0.8 | 0.6 | 
CC(C)[C@@H]1CC[C@@H](C)C[C@H]1OC(=O)CCCCN1CCN(c2cc3c(cc2F)c(=O)c(C(=O)O)cn3C2CC2)CC1 [Compound 5, 1-cyclopropyl-6-fluoro-7-{4-[5-((1R,2S,5R)-2-isopropyl-5-methylcyclohexyloxy)-5-oxopentyl)piperazin-1-yl)-4-oxo-1,4-dihydroquinoline-3-carboxylic acid] | 1.2 | 0.9 | 0.7 | 1.6 | 
CC(C)[C@@H]1CC[C@@H](C)C[C@H]1OC(=O)CCCCCN1CCN(c2cc3c(cc2F)c(=O)c(C(=O)O)cn3C2CC2)CC1 [Compound 6, 1-cyclopropyl-6-fluoro-7-{4-[6-((1R,2S,5R)-2-isopropyl-5-methylcyclohexyloxy)-6-oxohexyl]piperazin-1-yl}-4-oxo-1,4-dihydroquinoline-3-carboxylic acid] | 3.4 | 1.9 | 2.2 | 2.6 | 
Cc1ccc(C(C)C)c(OCC(=O)N2CCN(c3cc4c(cc3F)c(=O)c(C(=O)O)cn4C3CC3)CC2)c1 [Compound 9, 1-cyclopropyl-6-fluoro-7-{4-[2-(2-isopropyl-5-methylphenoxy)acetyl]piperazin-1-yl}-4-oxo-1,4-dihydroquinoline-3-carboxylic acid] | 0.4 | 0.7 | 0.7 | 0.4 | 
Cc1ccc(C(C)C)c(OC(=O)CCN2CCN(c3cc4c(cc3F)c(=O)c(C(=O)O)cn4C3CC3)CC2)c1 [Compound 11, 1-cyclopropyl-6-fluoro-7-{4-[3-(2-isopropyl-5-methylphenoxy)-3-oxopropyl]piperazin-1-yl}-4-oxo-1,4-dihydroquinoline-3-carboxylic acid] | 2.5 | 1.9 | 2.9 | 2.2 | 1.9–3.4
Cc1ccc(C(C)C)c(OC(=O)CCCN2CCN(c3cc4c(cc3F)c(=O)c(C(=O)O)cn4C3CC3)CC2)c1 [Compound 12, 1-cyclopropyl-6-fluoro-7-{4-[4-(2-isopropyl-5-methylphenoxy)-4-oxobutyl]piperazin-1-yl}-4-oxo-1,4-dihydroquinoline-3-carboxylic acid] | 2.0 | 1.4 | 1.7 | 0.9 | 
Cc1ccc(C(C)C)c(OC(=O)CCCCN2CCN(c3cc4c(cc3F)c(=O)c(C(=O)O)cn4C3CC3)CC2)c1 [Compound 13, 1-cyclopropyl-6-fluoro-7-{4-[5-(2-isopropyl-5-methylphenoxy)-5-oxopentyl]piperazin-1-yl}-4-oxo-1,4-dihydroquinoline-3-carboxylic acid] | 1.9 | 2.9 | 2.1 | 1.9 | 
Cc1ccc(C(C)C)c(OC(=O)CCCCCN2CCN(c3cc4c(cc3F)c(=O)c(C(=O)O)cn4C3CC3)CC2)c1 [Compound 14, 1-cyclopropyl-6-fluoro-7-{4-[6-(2-isopropyl-5-methylphenoxy)-6-oxohexyl]piperazin-1-yl}-4-oxo-1,4-dihydroquinoline-3-carboxylic acid] | 0.8 | 0.7 | 0.9 | 0.6 | 
